About 210 (0.4%) of roughly 52,000 sequences were called active.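 How the source made its calls: active means gene whose silencing raises cell survival under the drug, median off-target-corrected z-score across its silencing RNAs 2 or more; inactive means the rest.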 The list shows a part of the results.
assay: Resistance to Poly (ADP-Ribose) Polymerase inhibitor: Gene Identification via Genome-wide siRNA Screen; conditions: mouse BRCA2 R2336H ES cells, olaparib, CellTiter-Glo viability; hits give high values
How it was run: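 Mouse BRCA2 R2336H ES cells were reverse-transfected with siRNA (20 nM final), treated at 48 h with 500 nM olaparib, and read by CellTiter-Glo after 72 h. Scores: MAD-based z per siRNA, median per gene, seed off-target correction.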

Sequence | z-score
GCACACCUAUGUCCACUCUTT against Aars | inactive: -0.69
CCAUGGAGUCUGGUUUCCUTT against Olfr591 | inactive: 1.79
GGACCAAGGCUUGGAUCUUTT against Magea6 | inactive: -2.08
CCCUAUCUCAAGGAAUAAATT against Pcyox1 | inactive: -1.57
GGAGACUUCUUUUUUGACATT against Myo7b | inactive: -0.104
CCCAGUAUCCCAUAACCCATT against 1700022I11Rik | inactive: -1.67
GGAAAUUUGUAUCCCGAGUTT against Trp53 | inactive: 4.7
GGAAAGAGGGUUUAUUUUGTT against 4930556L07Rik | inactive: 1.24
GGAUAUUCCUGCUGUCACCTT against Dmrt1 | inactive: -0.3
GGUUGUGUCUUCUUUUCUCTT against Cenph | inactive: 0.34
GCCUACUUCUGUUAAUUCUTT against D10Ucla2 | inactive: 0.324
GGAGAGAGAUGCCCAAAUCTT against A230056M16 | inactive: -0.672
GCUUGAAUAUGAGAACGAATT against 4933401K09Rik | inactive: -1.11
CCAUCCGCCUGUUAGAAAGTT against BC062185 | inactive: -2.34
GCAUUGUUUUUCUAUUCAGTT against Cfhl1 | inactive: 0.0601
CCGAAGUUAAGACAAAGAATT against 1700012M14Rik | inactive: -0.11
CGUGGACAUCGAUAUCACCTT against Slc26a8 | inactive: 1.92
GGCCAAUGCCUACAAGUAGTT against AW557805 | inactive: -0.164
CCCUUGCUACAAUGAUGCCTT against Mfge8 | inactive: -0.195
GGUGCUGAUGAAGUUCAUGTT against Ap1b1 | inactive: 0.163
GCGAUGAUGAAAGCUCAGUTT against Atad1 | inactive: -1.87
GGGUAUAGAGUCAAUCUGATT against A930009M04Rik | inactive: 0.252

Sequence | z-score
GGAACAUCAUUACAGCCAATT against C030018G13Rik | inactive: 0.426
GGAUGAUUGUGUUUCGACUTT against Stoml1 | inactive: 0.00388
GGAUGAAGAGACUAAAAAUTT against Il23a | inactive: 1.08
CGAGAAAUCCUGUAAACGUTT against A130081B01 | inactive: 0.296
GGAAAAACAGUUCUUGGAGTT against Apeh | inactive: 0.294
GCUAUCAAGGGCAUGAUCCTT against Gabra3 | inactive: -0.915
CUCCACUCCUUUGGAACUUTT against 4930481M05 | inactive: 0.412
GCGGCAAGUAUUAUUAUCATT against Cbx4 | inactive: 1.01
GGUUUGCUUUUAUGAGAGUTT against 2610044O15Rik | inactive: 1.08
GGUUACCAAAAAAAGAGUUTT against Xrn1 | inactive: -1.86
GCUACAGCUAUAUCGCUAUTT against Cnot8 | inactive: -0.355
GGACCUCAUCAAGCUAUGUTT against Rbms3 | inactive: -2.98
GGAGUUUCAACUCUUCUUCTT against Efcbp2 | inactive: 0.0947
GGUUAAAAGACUGAAUGAATT against Rabep2 | inactive: -0.173
GCUACUCUUACAAGCAAUATT against Rnf111 | inactive: -0.985
CCGUUUCCCUCUAAAGAAATT against Mphosph6 | inactive: -0.855
GGUUGAAGGAGACAACAUUTT against Fzd6 | inactive: -0.0162
GGAUAUAAACGGGUUAACATT against Ltbp1 | inactive: -0.255
GGAGUUAAAUACUGAGUUUTT against Csnk1g3 | inactive: 0.574
GGCAGUUUCAAUGAAAGAATT against Cnn2 | inactive: 0.129
CGAAUUUGUAACACAUGGUTT against Tmeff1 | inactive: -0.802
GGUUAAGCAGGAAAACAAGTT against Pygb | inactive: 0.945

Sequence | z-score
GGUUGAUUACAGCAUCGGGTT against Cops7a | inactive: -0.565
GGAGAAAGAAGGGAUUCUCTT against Ensa | inactive: 0.191
CGGCUUCUUAGGAAACUCUTT against Olfr358 | inactive: -1.24
GCGCAAAGGUGAAACGUAGTT against E030011O05Rik | inactive: -0.0435
GCCUUUAAGAAGUUGAUGCTT against Olfr1015 | inactive: 0.805
GGUCUGAAGUAUAGCAAUGTT against 6720463E02Rik | inactive: 0.0806
GGUCCUAGGCCGAUUCGAUTT against Gpsm1 | inactive: -0.387
CCUGCAUUUGCCGAACUUATT against 2610018G03Rik | inactive: -0.494
CCUUUUCCCUAAUACGUAUTT against Pcyt1a | inactive: -0.233
GGUGUAUUCCAGUUACAAATT against 2610002M06Rik | inactive: 0.2
GCGGCUUUACAAGGAUGACTT against Tceb2 | inactive: -1.49
GGAAAACUCAUCAUACCAGTT against AI746432 | inactive: 0.55
CUGUGGUGCCAUUCUUACUTT against Olfr386 | inactive: 0.0804
CGAGACAAAGAAAGCAAGUTT against 5033403J15Rik | inactive: -1.65
GGACUGGAUGCCACUGGUATT against Tyki | inactive: 3.98
GCAGAACCAUACUAUUUGCTT against Apg5l | inactive: -0.0879
GGAAACUUUUACUUCACAGTT against Lepre1 | inactive: 1.19
CGGGAAUCCUCUGAAUUAATT against Pycr2 | inactive: 0.439
GGCUGAAAGGGAAGACAAATT against B3galt3 | inactive: -2.67
CCUGAUUAUUCUGAGAAAUTT against Adsl | inactive: -0.437
GGCAUUUUUACAGACCAGCTT against Apoc2 | inactive: 1.53
GGCAACCCUGAAGACAGCUTT against Cys1 | inactive: 1.05

Four entries from above, comma-delimited:
Sequence,z-score
GCACACCUAUGUCCACUCUTT against Aars,inactive: -0.69
CCCUUGCUACAAUGAUGCCTT against Mfge8,inactive: -0.195
GGAACAUCAUUACAGCCAATT against C030018G13Rik,inactive: 0.426
GGAUGAUUGUGUUUCGACUTT against Stoml1,inactive: 0.00388

From PubChem BioAssay AID1347423 (Functional Genomics Laboratory (NCATS/FGL), 2020)
